Data from the supplement of paper PMC3334620.
The full ranking holds about 33,000 sequences; the median of “E-score (-0.5 to 0.5)” is about -0.0034, and the highest 2% start at about 0.25. The list shows a part of the results.

target: T1, Yap3 (UniProt P38749); assay: PBM E-score (8-mer binding enrichment) (E-score (-0.5 to 0.5)); higher = stronger / more preferred TF binding; conditions: protein concentration: 100 nM; construct: GST-full length
T1 sequence: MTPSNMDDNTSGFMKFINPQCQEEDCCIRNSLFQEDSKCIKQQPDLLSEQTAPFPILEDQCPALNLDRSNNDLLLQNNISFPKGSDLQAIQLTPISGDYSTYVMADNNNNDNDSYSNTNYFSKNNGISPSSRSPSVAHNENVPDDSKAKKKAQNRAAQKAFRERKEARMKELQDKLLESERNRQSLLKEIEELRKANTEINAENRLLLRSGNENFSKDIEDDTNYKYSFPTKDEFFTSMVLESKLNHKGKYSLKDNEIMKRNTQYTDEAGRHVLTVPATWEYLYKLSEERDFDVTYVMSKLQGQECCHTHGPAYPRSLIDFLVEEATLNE
Outline: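 Masliner-normalised scans of fluorescent anti-GST signal were the basis for scoring. That signal came from GST-tagged yeast transcription factors applied at about 100-200 nM to double-stranded universal all-10-mer Agilent arrays on fresh or once-stripped slides. Each ungapped eight-base word, pooled with its reverse complement, received an E-score from the Universal PBM Analysis Suite.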

Row | Sequence | PBM E-score
1 | GTCCGGTA | -0.0675
2 | ATTTACCG | 0.203
3 | AACCTCAA | 0.0262
4 | CATATGCG | 0.115
5 | GGCTCTTA | -0.124
6 | GGGTTGTA | -0.0576
7 | GTACCAAA | 0.172
8 | CGAGGACG | -0.0782
9 | ATGGGGTA | 0.0129
10 | TCGGAAGA | -0.0733
11 | ATGGATCC | 0.125
12 | GATTCGAC | 0.00253
13 | ATTGTAGA | 0.206
14 | TAGTAGAA | -0.00059
15 | GGGCTTAA | -0.232
16 | GCGGCGAA | -0.0178
17 | CCATACGC | 0.147
18 | AGTGGTTA | 0.142
19 | AGGGTAGG | -0.047
20 | AAGCCTTA | -0.103
21 | GTCGTGCA | -0.0612
22 | AAAGACTG | -0.0469
23 | AGTTATTC | 0.096
24 | CTGGGGAC | -0.357
25 | GGGGTACC | -0.385

Some of the entries above in another layout.
AAAGACTG
  PBM E-score: -0.0469
AGTTATTC
  PBM E-score: 0.096
CTGGGGAC
  PBM E-score: -0.357

Rewritten with tabs: part of the list above
Row	Sequence	PBM E-score
2	ATTTACCG	0.203
3	AACCTCAA	0.0262
4	CATATGCG	0.115

Additional entries

Row | Sequence | PBM E-score
26 | ATACAGTG | 0.192
27 | ACTTGGTA | 0.0764
28 | ACTTTACT | 0.284
29 | ACGGAGCA | -0.0147
30 | GAGATCGA | 0.0135
31 | GCTGACCC | -0.278
32 | ACGATCAA | 0.0848
33 | CCTCCACC | -0.31
34 | CAACTGGC | -0.0753
35 | AATAACGT | 0.0995
36 | CGTTAACA | 0.0894
37 | CGGGAGTC | -0.26
38 | ATAACAGG | -0.0244
39 | CATGGATA | 0.0907
40 | GCGAAAAC | 0.0661
41 | AACACTTA | 0.119
42 | CGTGTCGC | 0.045
43 | CACACTGG | -0.0659
44 | CAATCAGA | 0.00443
45 | AGAAGCGA | 0.0446
46 | ACAATTAA | 0.208
47 | CACCAACC | 0.0462
48 | ACAGTCAG | 0.0472
49 | CTCGCTAC | -0.0448
50 | GATAGTGA | 0.189

Row | Sequence | PBM E-score
51 | CCAAGGGG | -0.158
52 | AAGATGAG | -0.052
53 | GAGCTAGC | 0.0975
54 | CCACGCGA | 0.0898
55 | AAGAGCAC | -0.0358
56 | AAACCATA | 0.0929
57 | GAGCCATA | -0.114
58 | CATGGGGC | -0.272
59 | GCAGCCAA | 0.113
60 | CTCGGCTC | -0.161
61 | CAGAAGTA | 0.127
62 | TCAACCCA | -0.00582
63 | AGGTAAGC | 0.0562
64 | ATGAGTGA | 0.229
65 | GATAATCA | 0.221
66 | ATGTGAAG | 0.0755
67 | CATCATTC | 0.0899
68 | TGTAGTAA | 0.128
69 | AATTGAAA | 0.189
70 | GCTCTAAC | -0.12
71 | CCAGAATC | -0.0407
72 | ATTCTGAC | -0.0137
73 | CACTGAGG | -0.188
74 | CGAAATCA | 0.216
75 | CGAGAAGA | 0.0591

Row | Sequence | PBM E-score
76 | CGAGTTGC | 0.153
77 | ATCGACCG | -0.0482
78 | GCCTCACA | -0.00779
79 | ATCGCGAA | 0.149
80 | AAGGCGAT | -0.0876
81 | CTGGGCGA | -0.195
82 | TGCACGAA | 0.165
83 | AGTGATAG | -0.0431
84 | TCAAAAAA | 0.185
85 | CCAGCCGG | -0.164
86 | TCAGTGGA | -0.16
87 | ACAAACGA | 0.199
88 | ATCTGCAT | 0.193
89 | AAGTAACT | 0.0661
90 | ACTGTTAT | 0.201
91 | CTAACCCC | -0.281
92 | GAGGGATA | -0.146
93 | ACACTCCA | -0.0338
94 | ATTACGTG | 0.397
95 | CGCTTACG | 0.149
96 | GGATCTAA | -0.182
97 | CCATTGAA | 0.0891
98 | CTATCAGC | 0.0169
99 | GTCGGCTA | -0.103
100 | GGATCGTA | -0.126

Row | Sequence | PBM E-score
101 | CCAAGACA | -0.0123
102 | CTCGCGAC | 0.068
103 | TACGGGCA | -0.127
104 | ATAGATAG | -0.0309
105 | ACGCACAT | 0.0722
106 | AGTCTTTA | -0.0742
107 | AGTATCAT | 0.104
108 | ACACGTCA | 0.027
109 | ATTCCTCA | 0.0587
110 | CCGAAACA | 0.143
111 | AGCTGGAA | -0.178
112 | CTTGACTA | -0.029
113 | AATCTGTG | -0.0142
114 | AACTAGCG | 0.141
115 | CCAAGCAG | -0.091
116 | AACCAGTC | 0.0151
117 | AGGCGTGG | -0.39
118 | CTCATGAC | 0.106
119 | AGACGGCG | 0.0525
120 | ATACGGGG | -0.255
121 | CTTTCGAC | -0.148
122 | GCAACGGC | 0.102
123 | GGCACGTA | 0.00791
124 | AGTCGGAG | -0.168
125 | CCTTGCGA | 0.0356

Row | Sequence | PBM E-score
126 | AGGGGGTA | -0.4
127 | AGCTGGCA | -0.0205
128 | AAACTGGC | 0.00917
129 | ATCAGAAC | -0.0837
130 | ACGCATAA | 0.189
131 | ACACATTA | 0.0593
132 | GCCACTAC | -0.123
133 | AGCCCTGG | -0.383
134 | GGCCCTCA | -0.287
135 | ACAAAGCT | 0.134
136 | GTCATACA | 0.0761
137 | AAAGTACG | 0.148
138 | CGCAATTA | 0.128
139 | GTTTGATA | 0.188
140 | AATAGTAG | 0.206
141 | TGACCCAA | 0.133
142 | CTCTAGTC | -0.278
143 | ATATTGCA | 0.162
144 | TAGCCAAA | 0.061
145 | ATTATACC | 0.179
146 | AACACACT | 0.158
147 | CCTAGCGC | -0.0445
148 | CAACCGTC | -0.213
149 | ACTTTCAC | 0.136
150 | GCCTTCAA | 0.00934

Part of the list above, tab-delimited.
Row	Sequence	PBM E-score
126	AGGGGGTA	-0.4
131	ACACATTA	0.0593
132	GCCACTAC	-0.123
136	GTCATACA	0.0761
142	CTCTAGTC	-0.278

Further records:

Row | Sequence | PBM E-score
151 | ATATCGCC | 0.0936
152 | AGTGCATG | 0.0892
153 | CACCAATA | -0.00578
154 | CGCACGTC | -0.0237
155 | GAGCCGTA | 0.0717
156 | GCAATTCA | 0.0218
157 | CATGTAAC | 0.0356
158 | TAGAGTGA | -0.0618
159 | AGCTGGCG | -0.254
160 | CCCCACTC | -0.116
161 | ACCTGCTC | -0.137
162 | ACCAGATA | 0.0786
163 | AGACTAAT | -0.0727
164 | AACGCTTA | 0.0813
165 | CGTTGTAG | 0.0544
166 | TATGCGAA | 0.0891
167 | AAGAGGTA | 0.043
168 | GACATCTC | -0.0535
169 | ACCGTCAC | -0.173
170 | CTTAGGCA | -0.211
171 | CAAAGGAA | 0.201
172 | CATTTGGG | 0.0228
